# Data reported in PubChem BioAssay AID1347075 (National Center for Advancing Translational Sciences (NCATS), 2019).
# Out of some 400,000 compounds screened, about 5,500 (1.4%) were called active. Inconclusive results, whose numbers are uncertain, are shown with a selection of clear calls. The call rests on the fitted dose curve; in most records, active means well fitted cell-killing curve with a large enough effect; inconclusive means small, poorly fitted or top-dose-only effect, or effect the other way; inactive means flat fitted curve, though single readings scatter. Potencies beside an inconclusive call are fits to weak or partial responses and may not hold up.
# Experiment: qHTS assay for MDR1-selective chemotherapeutics: Primary screen using the parental adenocarcinoma cell KB-3-1; further: nearly all actives have a fitted effect of over 60% in size
# Conditions: KB-3-1 viability, CellTiter-Glo ATP luminescence, 72 h; activity change, negative = cytotoxic: at 46.1 µM (top of the series)
# Summary of the method: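 Screening of KB-3-1 cells (DMEM, 10% FBS, phenol-red free) ran from lowest to highest compound concentration; after 72 h at 37 °C viability was read luminescently and curves fitted.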
# On the % scale 0 is the no-effect control and ±100 the full control effect; potency means the concentration at half of the fitted maximal effect.
Compound,"activity change, negative = cytotoxic",Potency
Cc1cc(C)n2c(SCC(=O)N(CCC#N)c3ccc4c(c3)OCCO4)nnc2n1,inconclusive: -11.7%,
CC(=O)c1cccc(N(C(=O)CNC(=O)c2ccco2)C(C(=O)NC2CCCC2)c2ccc(C)o2)c1 (stereo unspecified),,"inconclusive: 18.4 µM [rising, single point]"
CN1CCN(C(=S)SCC(=O)Nc2nc(-c3ccccc3)c(-c3ccccc3)o2)CC1,,"inconclusive: 8.2 µM [cytotoxic, partial curve]"
Cc1cc(C(=O)COC(=O)c2n[nH]c3ccccc23)c(C)n1C,,inactive
CCOC(=O)c1nnc(-c2ccccc2)nc1Oc1ccccc1Cl,,inactive
CCOc1cc(-c2c(C#N)c(N)nc3c2CCc2ccccc2-3)ccc1O,,"inconclusive: 29.1 µM [cytotoxic, single point]"
Nc1nc(Oc2ccc(F)cc2)c(Br)c(=O)[nH]1,,"inconclusive: 14.6 µM [cytotoxic, partial curve, poor fit]"
Cc1nc(SCCc2ccccc2)[nH]c(=O)c1C,,active: 3.26 µM
CCOC(=O)c1c(CSc2ccccc2)n(C)c2cc(Br)c(OCC(O)CNC(CO)(CO)CO)cc12 (stereo unspecified),,"inconclusive: 29.1 µM [cytotoxic, single point]"
CC(Cc1cccs1)NC(=S)Nc1ccc(Cl)cc1 (stereo unspecified),,inactive
O=C(c1ccccc1)N1CCCC(c2nc3c(nnn3Cc3ccccc3)c(=O)[nH]2)C1 (stereo unspecified),,"inconclusive: 0.58 µM [cytotoxic, full curve, poor fit]"
COc1cc(/C=C(/C#N)c2nc3ccccc3[nH]2)ccc1OCc1ccc(C(=O)O)o1,,"inconclusive: 5.17 µM [rising, full curve, poor fit]"
Cc1cccc(C)c1-n1nnnc1C1(C)CCC(=O)N1Cc1cccc(C(F)(F)F)c1 (stereo unspecified),,"inconclusive: 18.4 µM [cytotoxic, single point]"
Cc1cccc(-c2nc(CN3CCCC(C(=O)NC4CCCCCC4)C3)c(C)o2)c1 (stereo unspecified),,inactive
C=CCNC(=O)C(=O)NCC1CCCN1S(=O)(=O)c1cccs1 (stereo unspecified),,inactive
Cc1ccc(CCNC(=O)c2cn(C)c3ccc(S(=O)(=O)N4CCC(C)CC4)cc3c2=O)cc1,,"inconclusive: 29.1 µM [rising, single point]"
CC1(c2nnc(Cc3ccccc3)o2)CC(c2cccc(Cl)c2)=NO1 (stereo unspecified),inconclusive: -71.9%,
CCN(Cc1ccccc1)C(=O)c1ccc2c(=O)n3c(nc2c1)CCC3,,inactive
CC(C)=CCc1c(O)cc(O)c2c(=O)c3c(CC=C(C)C)c(O)ccc3oc12,,"inconclusive: 29.1 µM [cytotoxic, single point]"
COc1ccc(-c2cc(C(F)(F)F)nc(NCc3cccnc3)n2)cc1,,"inconclusive: 29.1 µM [cytotoxic, single point]"
COc1ccc(-c2nc3c(C)cc(Br)cn3c2CC2CCCCC2)cc1OC,,inactive
O=S(=O)(Cc1ccccc1Cl)c1ncn[nH]1,,"inconclusive: 29.1 µM [rising, single point]"
Cc1ccc(NS(=O)(=O)c2ccc(C(=O)NCCCN3CCCC3=O)cc2)cc1C,,"inconclusive: 20.6 µM [cytotoxic, partial curve, poor fit]"
COc1cccc(C(NC(=O)C2CCN(CCCOc3ccccc3)CC2)c2ccccn2)c1 (stereo unspecified),,inactive

Compound,"activity change, negative = cytotoxic",Potency
Cc1ccc2c(c1)S/C(=C\c1cccc[n+]1C)N2CCO,,"inconclusive: 23.1 µM [cytotoxic, single point]"
COc1cccc(-n2cc(C(=O)OCc3ccc(Cl)cc3)c3ccccc3c2=O)c1,,inactive
COCCNC(=O)c1cccc(Nc2nc(-c3ccccc3)c3cc(Cl)ccc3n2)c1,,active: 14.6 µM
Cc1cc(C)n(-c2ccc(C(=O)N3CCN(S(=O)(=O)c4cccc(Br)c4)CC3)cc2)n1,,"inconclusive: 32.6 µM [cytotoxic, single point]"
COc1ccc(C(=O)NN2CC(O)=C(c3nc4ccccc4n3C)C2=N)cc1OC,,"inconclusive: 29.1 µM [rising, single point]"
O=C(O)c1ccc2c(c1)C(=O)N(C(Cc1ccc(O)cc1)C(=O)O)C2=O (stereo unspecified),,inactive
CCOc1ccc2nc(NC(=O)c3ccc(OC)c(S(=O)(=O)N4CCOCC4)c3)sc2c1,,inactive
O=C(CSc1nnc(-c2ccccc2F)o1)Nc1ccccc1Cl,,"inconclusive: 16.4 µM [cytotoxic, partial curve]"
CCOc1ccccc1NC(=O)CSc1ncc(S(=O)(=O)c2ccc(C)c(C)c2)c(N)n1,,"inconclusive: 14.6 µM [cytotoxic, single point]"
CC1(c2ccccc2)NC(=O)N(CC(=O)Nc2ccccc2C(=O)NC2CC2)C1=O (stereo unspecified),,"inconclusive: 25.9 µM [cytotoxic, single point]"
O=C(c1cc(COc2c(F)cccc2F)on1)N1CCc2ccccc2C1,,inactive
Cc1ccc(NC(=S)N(CCCN2CCOCC2)Cc2cccnc2)cc1C,inconclusive: 0.713%,
CC(C)(C)c1ccc(C(=O)Nc2sc3c(c2C(=O)O)CCC3)cc1,,active: 3.26 µM
Cc1nc2cc(NC(=O)Nc3ccc(Br)cc3)ccc2o1,,"inconclusive: 29.1 µM [cytotoxic, single point]"
C=CCNC(=S)N1N=C(c2ccco2)CC1c1ccco1 (stereo unspecified),,inactive
FC(F)Oc1ccc(NC(=S)NC23CC4CC(CC(C4)C2)C3)cc1,,active: 23.1 µM
CCCOC(=O)C(=O)NNc1ccccc1,,"inconclusive: 23.1 µM [cytotoxic, single point]"
CC1=C(C(=O)Nc2ccccc2C(=O)N2CCN(c3ccccc3)CC2)SCCO1,,"inconclusive: 10.3 µM [cytotoxic, partial curve, poor fit]"
Cc1cccc(OCc2nnc(SCC(=O)c3cccs3)n2C)c1C,,inactive
COc1ccc(-c2cc(OC(=O)c3cccc(Cl)c3)c3c(C)oc(C)c3c(=O)c2)cc1,,inactive
COc1cc(NC(=O)N2CCC3(CC2)Nc2ccccc2-n2cccc23)cc(OC)c1OC,,"inconclusive: 20.6 µM [cytotoxic, single point]"
CCc1cccc2[nH]c3cc([N+](=O)[O-])ccc3c12,,"inconclusive: 18.4 µM [cytotoxic, partial curve]"
COc1cccc(-c2sc3ccc(OC)cc3c2-c2ccc(OC)cc2F)c1,,"inconclusive: 29.1 µM [cytotoxic, single point]"
Cc1c(O)ccc(/C=N/Nc2ncccc2[N+](=O)[O-])c1O,,"inconclusive: 14.6 µM [cytotoxic, partial curve, poor fit]"

# Molecules shown so far containing a nitro group on carbon:
Compound,"activity change, negative = cytotoxic",Potency
CCc1cccc2[nH]c3cc([N+](=O)[O-])ccc3c12,,"inconclusive: 18.4 µM [cytotoxic, partial curve]"
Cc1c(O)ccc(/C=N/Nc2ncccc2[N+](=O)[O-])c1O,,"inconclusive: 14.6 µM [cytotoxic, partial curve, poor fit]"

# (further entries)

Compound,"activity change, negative = cytotoxic",Potency
O=C(Nc1ncnc2nc[nH]c12)c1ccccc1,inconclusive: 20.3%,
CN(C)c1ccc(/C=C/C(=O)c2ccc(C(C)(C)C)cc2)cc1[N+](=O)[O-],,"inconclusive: 29.1 µM [cytotoxic, single point]"
O=C(CSc1ccc(-c2ccccn2)nn1)c1ccc([N+](=O)[O-])cc1,,"inconclusive: 0.058 µM [cytotoxic, full curve]"
O=C(CSc1c2c(nc3cc(Cl)ccc13)CCCC2)N1CCN(c2ccccc2F)CC1,,inactive
O=C(Oc1ccc([N+](=O)[O-])cc1)c1ccc2ccccc2n1,,"inconclusive: 0.206 µM [rising, full curve]"
COCCNc1nc2c(c(=O)n(C)c(=O)n2C)n1Cc1cccc(C(F)(F)F)c1,,"inconclusive: 20.6 µM [cytotoxic, partial curve, poor fit]"
COc1ccc(Cl)cc1NC(=O)CN(C)C(=O)c1ccc(N2CCCCCC2)c([N+](=O)[O-])c1,,"inconclusive: 23.1 µM [cytotoxic, single point]"
CC(=O)OCc1ccc(C2=CC(=O)CC(C)(C)C2=O)cc1,,inactive
O=C(Nc1ccccc1)C1C2/C=C\CCCCC21 (stereo unspecified),,inactive
CC(C)C[C@H]1CNC(=S)N1C[C@H]1CCCN1C[C@H](Cc1ccccc1)N1C[C@H](Cc2ccc(O)cc2)N(CCc2ccccc2)C1=S,,"inconclusive: 29.1 µM [cytotoxic, single point]"
Cn1cnc2c(=O)sc3ccccc3c21,,"inconclusive: 0.082 µM [cytotoxic, full curve]"
O=C(Nc1cccc(-c2nc3cccnc3s2)c1)c1cccc(Br)c1,,"inconclusive: 25.9 µM [cytotoxic, single point]"
Cc1ccc(S(=O)(=O)N2CCN(S(C)(=O)=O)CC2)cc1,,inactive
CCC1=Nc2cc(C(=O)NCc3ccco3)ccc2Sc2ccc(Cl)cc21,,active: 1.46 µM
CC1(C)Cc2c(sc3[nH]c(=S)n(Cc4ccccc4)c(=O)c23)CO1,,"inconclusive: 18.4 µM [cytotoxic, single point]"
COc1cccc(NC(=O)CN(C)C(=O)c2ccc(-n3cncn3)c([N+](=O)[O-])c2)c1,,inactive
O=C(NCCO)c1ccc(CSc2nc3ccccc3[nH]2)cc1,,inactive
COc1ccc(C(O)c2ncc(-c3ccc4ccccc4c3)[nH]2)cc1 (stereo unspecified),,inactive
CCOc1cc(C)c(S(=O)(=O)NC2CCCCC2)cc1C,,"inconclusive: 23.1 µM [cytotoxic, partial curve, poor fit]"
Cc1c(CN(C)C(=O)c2sc3cc(Cl)ccc3c2Cl)cnn1C,,"inconclusive: 18.4 µM [cytotoxic, single point]"
CC1=CC(C)(C)NC(=S)N1c1cccc(C)c1,,inactive
Nc1nonc1-c1nc2ccccc2n1CC(=O)Nc1ccccc1,,"inconclusive: 29.1 µM [cytotoxic, single point]"
CCN(CC)S(=O)(=O)c1ccc(C)c(NC(=S)Nc2cccc(S(=O)(=O)N3CCCCCC3)c2)c1,,"inconclusive: 29.1 µM [cytotoxic, single point]"

# Three neighbouring entries already listed, for reference:
Compound,"activity change, negative = cytotoxic",Potency
O=C(c1cc(COc2c(F)cccc2F)on1)N1CCc2ccccc2C1,,inactive
Cc1ccc(NC(=S)N(CCCN2CCOCC2)Cc2cccnc2)cc1C,inconclusive: 0.713%,
CC(C)(C)c1ccc(C(=O)Nc2sc3c(c2C(=O)O)CCC3)cc1,,active: 3.26 µM
